These results are taken from publication PMC12412578.

Chains of the proteins cited; added tags and fusions are not shown.
UniProt Q9BPZ7: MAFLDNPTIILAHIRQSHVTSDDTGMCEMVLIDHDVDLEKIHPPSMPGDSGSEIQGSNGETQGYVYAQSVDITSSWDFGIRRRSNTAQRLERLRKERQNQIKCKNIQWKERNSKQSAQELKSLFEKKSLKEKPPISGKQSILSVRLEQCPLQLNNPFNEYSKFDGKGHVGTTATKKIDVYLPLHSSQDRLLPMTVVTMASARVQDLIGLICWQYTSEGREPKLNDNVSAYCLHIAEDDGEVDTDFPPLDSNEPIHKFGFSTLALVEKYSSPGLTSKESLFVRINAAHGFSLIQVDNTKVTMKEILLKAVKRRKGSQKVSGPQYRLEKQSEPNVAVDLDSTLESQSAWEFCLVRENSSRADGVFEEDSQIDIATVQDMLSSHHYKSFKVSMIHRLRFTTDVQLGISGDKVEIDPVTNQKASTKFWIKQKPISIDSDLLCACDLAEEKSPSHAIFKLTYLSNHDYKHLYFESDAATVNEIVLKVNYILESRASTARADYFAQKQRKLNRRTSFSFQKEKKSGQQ
UniProt P31749: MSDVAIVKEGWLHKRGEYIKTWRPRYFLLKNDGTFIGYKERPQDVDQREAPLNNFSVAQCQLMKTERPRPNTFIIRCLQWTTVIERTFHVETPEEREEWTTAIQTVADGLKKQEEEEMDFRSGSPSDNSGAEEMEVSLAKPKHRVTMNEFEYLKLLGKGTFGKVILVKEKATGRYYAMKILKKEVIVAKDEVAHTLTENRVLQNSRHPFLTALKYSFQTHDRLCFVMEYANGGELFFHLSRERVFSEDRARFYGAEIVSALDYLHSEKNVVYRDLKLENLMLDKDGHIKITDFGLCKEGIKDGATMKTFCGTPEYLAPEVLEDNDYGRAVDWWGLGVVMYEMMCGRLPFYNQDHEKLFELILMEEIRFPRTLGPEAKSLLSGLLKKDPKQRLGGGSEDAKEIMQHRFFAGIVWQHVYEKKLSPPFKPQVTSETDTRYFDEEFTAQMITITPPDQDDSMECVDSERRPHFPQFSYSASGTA

In this assay the target is Flag-SIN1 (UniProt Q9BPZ7). The assay is described as follows: co-IP; HEK293T transfected with HA-AKT and Flag-SIN1; starved in amino acid-free medium 1 h, then 50 µM ZnSO4 1 h, alone or with histidine; also PRMT5 WT or knock-down cells; lysate on anti-Flag M2 magnetic beads 4-6 h, immunoblot.

Results are given in words; binding and its absence hold for the method and conditions named. In cells and extracts the contact can be indirect. Some binding calls cover weakened binding; strength is not graded here.

Take HA-AKT (from UniProt P31749 1-480): the binding result is on record as “binds”.
